Measured values from ChEMBL document CHEMBL1909046, “DrugMatrix in vitro pharmacology data”.

By UniProt entry, the sequences of proteins in these tests, tags left out. Where a name states a change or a piece, a line headed by the entry shows the natural chain unless it says otherwise.
UniProt P25021, whole entry: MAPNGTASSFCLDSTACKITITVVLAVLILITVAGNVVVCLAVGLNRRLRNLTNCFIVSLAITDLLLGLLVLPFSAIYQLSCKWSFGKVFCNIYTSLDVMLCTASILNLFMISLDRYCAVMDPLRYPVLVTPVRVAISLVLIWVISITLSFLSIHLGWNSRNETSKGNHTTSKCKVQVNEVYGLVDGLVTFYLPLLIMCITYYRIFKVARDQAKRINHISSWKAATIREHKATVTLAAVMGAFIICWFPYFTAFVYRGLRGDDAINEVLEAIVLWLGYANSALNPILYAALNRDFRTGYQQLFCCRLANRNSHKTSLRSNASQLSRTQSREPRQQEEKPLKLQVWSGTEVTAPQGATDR
UniProt P15207, whole entry S389L: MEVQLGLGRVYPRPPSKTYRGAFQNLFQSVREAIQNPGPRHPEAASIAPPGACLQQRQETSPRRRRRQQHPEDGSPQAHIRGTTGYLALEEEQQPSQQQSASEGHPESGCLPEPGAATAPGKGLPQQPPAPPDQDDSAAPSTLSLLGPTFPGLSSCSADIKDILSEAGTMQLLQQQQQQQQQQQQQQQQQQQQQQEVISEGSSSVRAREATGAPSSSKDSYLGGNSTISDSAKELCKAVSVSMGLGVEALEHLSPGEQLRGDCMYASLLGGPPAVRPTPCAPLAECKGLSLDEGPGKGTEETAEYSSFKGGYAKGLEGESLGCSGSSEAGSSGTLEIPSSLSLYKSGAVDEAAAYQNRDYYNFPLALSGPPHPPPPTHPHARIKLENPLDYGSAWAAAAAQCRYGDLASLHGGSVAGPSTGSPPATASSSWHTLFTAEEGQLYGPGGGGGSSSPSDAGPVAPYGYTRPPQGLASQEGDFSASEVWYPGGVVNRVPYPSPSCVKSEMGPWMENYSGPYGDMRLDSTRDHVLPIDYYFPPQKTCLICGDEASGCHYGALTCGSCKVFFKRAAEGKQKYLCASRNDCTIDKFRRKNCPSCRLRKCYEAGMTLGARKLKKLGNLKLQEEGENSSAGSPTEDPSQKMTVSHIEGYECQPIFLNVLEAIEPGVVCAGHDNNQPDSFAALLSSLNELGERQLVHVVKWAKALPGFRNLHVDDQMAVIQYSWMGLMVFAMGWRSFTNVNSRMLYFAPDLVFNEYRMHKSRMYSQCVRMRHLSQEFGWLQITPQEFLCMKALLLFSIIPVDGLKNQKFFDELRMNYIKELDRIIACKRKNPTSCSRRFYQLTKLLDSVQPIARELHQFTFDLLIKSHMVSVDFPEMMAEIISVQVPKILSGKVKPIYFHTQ
UniProt Q12809: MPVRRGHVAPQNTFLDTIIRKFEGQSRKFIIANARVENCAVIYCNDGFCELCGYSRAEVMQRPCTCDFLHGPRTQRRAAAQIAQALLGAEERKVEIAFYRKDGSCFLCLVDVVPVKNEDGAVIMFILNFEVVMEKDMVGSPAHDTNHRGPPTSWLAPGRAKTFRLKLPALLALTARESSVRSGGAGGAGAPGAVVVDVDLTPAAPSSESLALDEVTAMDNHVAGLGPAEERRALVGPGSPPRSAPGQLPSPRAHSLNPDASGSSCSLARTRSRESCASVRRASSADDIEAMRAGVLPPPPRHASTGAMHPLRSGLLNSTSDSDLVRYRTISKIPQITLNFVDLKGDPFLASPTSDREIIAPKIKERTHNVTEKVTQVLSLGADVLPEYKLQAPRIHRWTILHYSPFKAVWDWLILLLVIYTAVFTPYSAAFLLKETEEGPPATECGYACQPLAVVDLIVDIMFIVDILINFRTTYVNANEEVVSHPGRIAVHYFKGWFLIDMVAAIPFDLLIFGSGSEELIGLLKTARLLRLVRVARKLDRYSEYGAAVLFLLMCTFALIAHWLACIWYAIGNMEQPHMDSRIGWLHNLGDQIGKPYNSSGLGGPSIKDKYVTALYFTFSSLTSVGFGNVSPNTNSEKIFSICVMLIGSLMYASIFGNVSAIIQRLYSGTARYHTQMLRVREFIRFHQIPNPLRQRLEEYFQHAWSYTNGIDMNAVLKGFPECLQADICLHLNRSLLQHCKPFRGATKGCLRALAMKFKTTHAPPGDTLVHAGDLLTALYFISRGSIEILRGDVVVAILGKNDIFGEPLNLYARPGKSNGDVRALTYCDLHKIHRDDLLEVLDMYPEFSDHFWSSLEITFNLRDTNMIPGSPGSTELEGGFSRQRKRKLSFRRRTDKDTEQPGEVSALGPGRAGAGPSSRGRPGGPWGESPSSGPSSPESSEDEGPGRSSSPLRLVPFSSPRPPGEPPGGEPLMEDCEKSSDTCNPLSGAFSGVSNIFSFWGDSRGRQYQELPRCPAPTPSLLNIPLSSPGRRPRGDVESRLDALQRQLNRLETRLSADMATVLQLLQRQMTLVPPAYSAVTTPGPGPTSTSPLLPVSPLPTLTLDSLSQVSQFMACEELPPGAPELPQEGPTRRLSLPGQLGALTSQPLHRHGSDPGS
UniProt P12530: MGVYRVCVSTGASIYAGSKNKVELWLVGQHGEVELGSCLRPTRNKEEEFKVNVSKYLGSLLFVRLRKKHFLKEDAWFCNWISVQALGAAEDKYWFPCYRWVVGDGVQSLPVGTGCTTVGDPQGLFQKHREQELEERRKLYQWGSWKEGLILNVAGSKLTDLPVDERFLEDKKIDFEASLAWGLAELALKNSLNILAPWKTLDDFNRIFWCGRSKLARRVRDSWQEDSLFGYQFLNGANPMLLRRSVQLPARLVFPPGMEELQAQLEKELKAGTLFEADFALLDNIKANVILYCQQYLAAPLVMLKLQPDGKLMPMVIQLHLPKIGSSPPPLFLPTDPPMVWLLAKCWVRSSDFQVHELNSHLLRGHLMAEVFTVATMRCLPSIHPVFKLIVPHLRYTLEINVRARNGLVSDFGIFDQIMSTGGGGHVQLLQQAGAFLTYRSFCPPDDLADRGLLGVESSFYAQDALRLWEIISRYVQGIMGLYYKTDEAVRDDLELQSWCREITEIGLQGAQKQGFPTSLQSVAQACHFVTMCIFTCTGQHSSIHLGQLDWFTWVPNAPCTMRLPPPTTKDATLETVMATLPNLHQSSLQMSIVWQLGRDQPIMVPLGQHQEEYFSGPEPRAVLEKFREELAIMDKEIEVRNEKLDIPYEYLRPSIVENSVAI

What was measured:
Histamine H2 receptor = Histamine H2 receptor (Homo sapiens, UniProt P25021); type: cell membranes, Membrane; conditions: cho-k1
Androgen receptor = Androgen receptor (Rattus norvegicus, UniProt P15207)
[1] = target: Voltage-gated inwardly rectifying potassium channel KCNH2 (Homo sapiens, UniProt Q12809); conditions: hek293
[2] = target: Polyunsaturated fatty acid lipoxygenase ALOX15 (Oryctolagus cuniculus, UniProt P12530); type: tissue-based; conditions: reticulocytes;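 also: inhibition of 15-lipoxygenase enzyme activity measured with linoleic acid as the substrate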
Also: in other assays of this panel Not Active means under 50% inhibition at 10 µM.

Structure (SMILES) | IC50 (Histamine H2 receptor) | IC50 (Androgen receptor) | IC50 [1] | Ki [1] | IC50 [2]
CCCCCCCCc1ccc(O)cc1 [4-OCTYLPHENOL] | Not Active | Not Active | Not Active | Not Active | 
CC(C)(C)c1ccc(C(=O)CCCN2CCC(OC(c3ccccc3)c3ccccc3)CC2)cc1 [EBASTINE] |  |  |  |  | Not Active
